From patent publication US9949961B2, “Agent for the prophylaxis and/or treatment of neoplastic diseases” (priority 2013, dated 2018)

Test system: hepatic tumors induced by DENA
Test: Preventive effect on hepatic neoplasms induced by N-diethyl nitrosamine (DENA) in rats
Assay type: in vivo, male Wistar rats
Settings: 25 mg/kg/day in drinking water; DENA 30 mg/kg/week i.p.; at autopsy
Method: The efficacy of preventive effects of Products 1 and 2 in relation to hepatic neoplasms was shown in the experiment on male Wistar rats which were intraperitoneally administered with chemical carcinogen-N-diethyl nitrosamine (DENA) (Nitrosodiethylamin (N—N)). The nature of the invention is explained with the execution example.
To solve the task, 3 groups of male Wistar rats weighing 150-200 g were formed, 16 in each. Rats of the control group were administered intraperitoneally with DENA in dose 30 mg/kg/week. The dosage was administered in 2 doses: Monday and Thursday. The animals of test groups were similarly administered with DENA. Rats of test groups took drinking water in addition to Products 1 and 2 assuming that they took 25 mg/kg of body weight/day with water. The animals started taking the products 3 weeks prior administration of N-diethyl nitrosamine to develop protective background in animal body and subsequently for 2.5 months.
During the experiment, weight of rats was controlled. After autopsy of animals, liver was weighted, tumors were visually counted on its surface and photographed.

| SMILES | Weight of liver [g] |
| --- | --- |
| O=C1CSC(=S)N1CCc1ccccc1 [Product 1] | 7.4 ± 0.19 |
| O=C1CSC(=S)N1CCc1ccncc1 [Product 2] | 7.0 ± 0.15 |
